Results deposited as PubChem BioAssay AID1053208 (Peter MacCallum Cancer Centre, 2014).

Aim: 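Genes whose silencing cuts survival of bone tumour cells only with doxorubicin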 (primary screen)
Cells: mouse osteosarcoma cells, early-passage culture from an engineered mouse model of fibroblastic bone tumour
Reagents: siRNA pool against mouse genes, 40 nM
Duration: about 120 h (48 h before drug, then 72 h with drug)
Challenge: doxorubicin 100 nM for 72 h, roughly 30-40% inhibitory dose
Measurement: 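Luminescent ATP signal taken as viability with or without 100 nM doxorubicin for 72 h; mean of two wells set against non-targeting siRNA and turned into robust z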
Scale: viability z-score with doxorubicin and doxorubicin viability vs non-targeting: higher = more viable cells under doxorubicin; viability z-score without drug: higher = more viable cells with knock-down alone; z-score of drug to no-drug ratio: higher = less drug sensitisation by knock-down
Hit rule: 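Called active if knock-down leaves viability unchanged without drug (z within -2 to 2) but lowers it with doxorubicin (z at or under -2)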
The whole screen tested about 17,000 reagents; shown is a random part of them. 788 of them (4.7%) were called active. 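Calls rest on z-score classes alone; an extra cut-off of viability at most 70% of control was not applied to them.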 Reagent sequences are not shown.

gene knocked down,PubChem SID,combined z-score class,viability z-score with doxorubicin,viability z-score without drug,z-score of drug to no-drug ratio,doxorubicin viability vs non-targeting,call
Tctn2,SID152320321,no change with or without drug,0.79,-1.52,2.14,1.01,inactive
Cdrt4,SID152298381,no change with or without drug,1.12,-0.17,1.46,1.04,inactive
Hand2,SID152305761,no change with or without drug,1.24,-0.84,2.14,1.05,inactive
Ada,SID152314997,no change with or without drug,-1.57,-0.51,-1.24,0.8,inactive
Sf3b1,SID152297204,low cell count with doxorubicin only,-7.08,-1.35,-6.97,0.31,active
Cdkn2b,SID152289834,no change with or without drug,0,0,0.11,0.94,inactive
Otog,SID152277366,low cell count with and without drug,-2.14,-2.19,-0.79,0.75,inactive
Gnmt,SID152322401,no change with or without drug,-0.34,-0.84,0.34,0.91,inactive
Pdgfa,SID152342130,no change with or without drug,-1.46,-1.18,-0.67,0.81,inactive
Mael,SID152320035,no change with or without drug,1.12,0.84,0.67,1.04,inactive
Rbm47,SID152317224,no change with or without drug,-0.22,0.34,-0.34,0.92,inactive
Nicn1,SID152288630,high cell count with doxorubicin only,2.92,1.69,1.8,1.2,inactive
Speer3,SID152267198,no change with or without drug,0.11,0.34,0,0.95,inactive
Ppif,SID152325841,no change with or without drug,0,-0.84,0.67,0.94,inactive
Sfswap,SID152266208,no change with or without drug,-0.45,-1.52,0.79,0.9,inactive
Ccr6,SID152272617,no change with or without drug,1.46,0.51,1.24,1.07,inactive
Vcf1,SID152326256,no change with or without drug,-0.22,0.34,-0.34,0.92,inactive
Phkg1,SID152299119,no change with or without drug,0,0.51,-0.22,0.94,inactive
SCN9A,SID152308487,no change with or without drug,0,-0.51,0.45,0.94,inactive
Tgfbr3,SID152296044,no change with or without drug,0,0.84,-0.45,0.94,inactive
Or7a39,SID152281695,low cell count without drug only,-1.35,-3.2,1.12,0.82,inactive
C230012O17Rik,SID152311664,no change with or without drug,0.56,1.85,-0.56,0.99,inactive
Slurp1,SID152267117,no change with or without drug,-1.69,0.84,-2.14,0.79,inactive
Or52z1,SID152299141,no change with or without drug,0.22,0,0.34,0.96,inactive
Armc9,SID152306100,high cell count without drug only,-1.57,2.53,-2.81,0.8,inactive
Mmp14,SID152303985,no change with or without drug,0.11,-0.51,0.56,0.95,inactive
Dctn1,SID152319420,no change with or without drug,1.46,1.18,0.79,1.07,inactive
Mgat3,SID152333548,no change with or without drug,-0.79,-1.18,0.11,0.87,inactive
Pts,SID152307404,no change with or without drug,-0.34,-0.51,0.11,0.91,inactive
5031434C07Rik,SID152313832,no change with or without drug,-0.22,1.85,-1.24,0.92,inactive
Eif2b1,SID152282092,no change with or without drug,0.34,0.51,0.11,0.97,inactive
Mrrf,SID152268141,no change with or without drug,-0.67,-0.17,-0.45,0.88,inactive
Svs3a,SID152292639,no change with or without drug,0.45,-0.51,1.01,0.98,inactive
1810065E05Rik,SID152303377,no change with or without drug,-1.24,0.17,-1.35,0.83,inactive
Sde2,SID152322459,no change with or without drug,0,-0.84,0.67,0.94,inactive
Dnaaf9,SID152271334,no change with or without drug,-1.12,1.18,-1.8,0.84,inactive
Npepps,SID152262843,no change with or without drug,-0.45,-0.34,-0.11,0.9,inactive
Hsd17b1,SID152341035,no change with or without drug,0.9,0.17,0.9,1.02,inactive
Klhdc1,SID152272247,no change with or without drug,-0.22,0.34,-0.34,0.92,inactive
Serpinb10,SID152291879,no change with or without drug,0.56,0.17,0.56,0.99,inactive
Ackr4,SID152323524,no change with or without drug,-1.57,0.17,-1.69,0.8,inactive
Alkbh6,SID152320557,no change with or without drug,-1.57,0.51,-1.8,0.8,inactive
Esrra,SID152283986,no change with or without drug,1.35,1.18,0.67,1.06,inactive
Ifih1,SID152319830,no change with or without drug,-0.22,-0.84,0.45,0.92,inactive
Kras,SID152333693,no change with or without drug,-0.22,-0.67,0.34,0.92,inactive
Serpinb9c,SID152299487,no change with or without drug,0.79,0.84,0.34,1.01,inactive
Porcn,SID152286350,high cell count with doxorubicin only,2.25,1.85,1.12,1.14,inactive
Ccdc174,SID152273228,no change with or without drug,0.67,0.84,0.22,1,inactive
Dock8,SID152322935,no change with or without drug,-0.9,0.17,-0.9,0.86,inactive
Btnl9,SID152281145,no change with or without drug,-1.24,0.51,-1.46,0.83,inactive
Colgalt2,SID152275670,no change with or without drug,1.46,0.84,1.01,1.07,inactive
St13,SID152309512,no change with or without drug,-0.45,-0.34,-0.11,0.9,inactive
Sh3d19,SID152273214,no change with or without drug,-0.45,-1.52,0.79,0.9,inactive
Or5p1,SID152293763,no change with or without drug,0.67,1.01,0.11,1,inactive
Fabp3,SID152323095,low cell count with doxorubicin only,-2.81,-1.01,-2.25,0.69,active
Rfx6,SID152266161,no change with or without drug,-0.11,0.67,-0.45,0.93,inactive
Sema3c,SID152330084,low cell count with doxorubicin only,-2.02,-0.84,-1.57,0.76,active
Dcaf15,SID152331441,no change with or without drug,0.45,0.17,0.45,0.98,inactive
Cenpb,SID152288740,no change with or without drug,0.45,-0.17,0.67,0.98,inactive
Rims4,SID152297444,no change with or without drug,0,0.84,-0.45,0.94,inactive
Lalba,SID152269297,no change with or without drug,-1.12,-0.17,-1.01,0.84,inactive
Ifi203,SID152323411,no change with or without drug,-0.67,0.17,-0.67,0.88,inactive
Nfe2l1,SID152282496,no change with or without drug,1.35,1.35,0.56,1.06,inactive

Reformatted: results already given.
{"gene knocked down": "Speer3", "PubChem SID": "SID152267198", "combined z-score class": "no change with or without drug", "viability z-score with doxorubicin": 0.11, "viability z-score without drug": 0.34, "z-score of drug to no-drug ratio": 0, "doxorubicin viability vs non-targeting": 0.95, "call": "inactive"}
{"gene knocked down": "Ppif", "PubChem SID": "SID152325841", "combined z-score class": "no change with or without drug", "viability z-score with doxorubicin": 0, "viability z-score without drug": -0.84, "z-score of drug to no-drug ratio": 0.67, "doxorubicin viability vs non-targeting": 0.94, "call": "inactive"}
{"gene knocked down": "Sfswap", "PubChem SID": "SID152266208", "combined z-score class": "no change with or without drug", "viability z-score with doxorubicin": -0.45, "viability z-score without drug": -1.52, "z-score of drug to no-drug ratio": 0.79, "doxorubicin viability vs non-targeting": 0.9, "call": "inactive"}
{"gene knocked down": "Ccr6", "PubChem SID": "SID152272617", "combined z-score class": "no change with or without drug", "viability z-score with doxorubicin": 1.46, "viability z-score without drug": 0.51, "z-score of drug to no-drug ratio": 1.24, "doxorubicin viability vs non-targeting": 1.07, "call": "inactive"}
